# Measurements published in PubChem BioAssay AID2662 (National Center for Advancing Translational Sciences (NCATS), 2010).
# Protein sequences, listed by entry. Tags and fused reporters are not part of them.
# UniProt Q03164, whole entry, looked up: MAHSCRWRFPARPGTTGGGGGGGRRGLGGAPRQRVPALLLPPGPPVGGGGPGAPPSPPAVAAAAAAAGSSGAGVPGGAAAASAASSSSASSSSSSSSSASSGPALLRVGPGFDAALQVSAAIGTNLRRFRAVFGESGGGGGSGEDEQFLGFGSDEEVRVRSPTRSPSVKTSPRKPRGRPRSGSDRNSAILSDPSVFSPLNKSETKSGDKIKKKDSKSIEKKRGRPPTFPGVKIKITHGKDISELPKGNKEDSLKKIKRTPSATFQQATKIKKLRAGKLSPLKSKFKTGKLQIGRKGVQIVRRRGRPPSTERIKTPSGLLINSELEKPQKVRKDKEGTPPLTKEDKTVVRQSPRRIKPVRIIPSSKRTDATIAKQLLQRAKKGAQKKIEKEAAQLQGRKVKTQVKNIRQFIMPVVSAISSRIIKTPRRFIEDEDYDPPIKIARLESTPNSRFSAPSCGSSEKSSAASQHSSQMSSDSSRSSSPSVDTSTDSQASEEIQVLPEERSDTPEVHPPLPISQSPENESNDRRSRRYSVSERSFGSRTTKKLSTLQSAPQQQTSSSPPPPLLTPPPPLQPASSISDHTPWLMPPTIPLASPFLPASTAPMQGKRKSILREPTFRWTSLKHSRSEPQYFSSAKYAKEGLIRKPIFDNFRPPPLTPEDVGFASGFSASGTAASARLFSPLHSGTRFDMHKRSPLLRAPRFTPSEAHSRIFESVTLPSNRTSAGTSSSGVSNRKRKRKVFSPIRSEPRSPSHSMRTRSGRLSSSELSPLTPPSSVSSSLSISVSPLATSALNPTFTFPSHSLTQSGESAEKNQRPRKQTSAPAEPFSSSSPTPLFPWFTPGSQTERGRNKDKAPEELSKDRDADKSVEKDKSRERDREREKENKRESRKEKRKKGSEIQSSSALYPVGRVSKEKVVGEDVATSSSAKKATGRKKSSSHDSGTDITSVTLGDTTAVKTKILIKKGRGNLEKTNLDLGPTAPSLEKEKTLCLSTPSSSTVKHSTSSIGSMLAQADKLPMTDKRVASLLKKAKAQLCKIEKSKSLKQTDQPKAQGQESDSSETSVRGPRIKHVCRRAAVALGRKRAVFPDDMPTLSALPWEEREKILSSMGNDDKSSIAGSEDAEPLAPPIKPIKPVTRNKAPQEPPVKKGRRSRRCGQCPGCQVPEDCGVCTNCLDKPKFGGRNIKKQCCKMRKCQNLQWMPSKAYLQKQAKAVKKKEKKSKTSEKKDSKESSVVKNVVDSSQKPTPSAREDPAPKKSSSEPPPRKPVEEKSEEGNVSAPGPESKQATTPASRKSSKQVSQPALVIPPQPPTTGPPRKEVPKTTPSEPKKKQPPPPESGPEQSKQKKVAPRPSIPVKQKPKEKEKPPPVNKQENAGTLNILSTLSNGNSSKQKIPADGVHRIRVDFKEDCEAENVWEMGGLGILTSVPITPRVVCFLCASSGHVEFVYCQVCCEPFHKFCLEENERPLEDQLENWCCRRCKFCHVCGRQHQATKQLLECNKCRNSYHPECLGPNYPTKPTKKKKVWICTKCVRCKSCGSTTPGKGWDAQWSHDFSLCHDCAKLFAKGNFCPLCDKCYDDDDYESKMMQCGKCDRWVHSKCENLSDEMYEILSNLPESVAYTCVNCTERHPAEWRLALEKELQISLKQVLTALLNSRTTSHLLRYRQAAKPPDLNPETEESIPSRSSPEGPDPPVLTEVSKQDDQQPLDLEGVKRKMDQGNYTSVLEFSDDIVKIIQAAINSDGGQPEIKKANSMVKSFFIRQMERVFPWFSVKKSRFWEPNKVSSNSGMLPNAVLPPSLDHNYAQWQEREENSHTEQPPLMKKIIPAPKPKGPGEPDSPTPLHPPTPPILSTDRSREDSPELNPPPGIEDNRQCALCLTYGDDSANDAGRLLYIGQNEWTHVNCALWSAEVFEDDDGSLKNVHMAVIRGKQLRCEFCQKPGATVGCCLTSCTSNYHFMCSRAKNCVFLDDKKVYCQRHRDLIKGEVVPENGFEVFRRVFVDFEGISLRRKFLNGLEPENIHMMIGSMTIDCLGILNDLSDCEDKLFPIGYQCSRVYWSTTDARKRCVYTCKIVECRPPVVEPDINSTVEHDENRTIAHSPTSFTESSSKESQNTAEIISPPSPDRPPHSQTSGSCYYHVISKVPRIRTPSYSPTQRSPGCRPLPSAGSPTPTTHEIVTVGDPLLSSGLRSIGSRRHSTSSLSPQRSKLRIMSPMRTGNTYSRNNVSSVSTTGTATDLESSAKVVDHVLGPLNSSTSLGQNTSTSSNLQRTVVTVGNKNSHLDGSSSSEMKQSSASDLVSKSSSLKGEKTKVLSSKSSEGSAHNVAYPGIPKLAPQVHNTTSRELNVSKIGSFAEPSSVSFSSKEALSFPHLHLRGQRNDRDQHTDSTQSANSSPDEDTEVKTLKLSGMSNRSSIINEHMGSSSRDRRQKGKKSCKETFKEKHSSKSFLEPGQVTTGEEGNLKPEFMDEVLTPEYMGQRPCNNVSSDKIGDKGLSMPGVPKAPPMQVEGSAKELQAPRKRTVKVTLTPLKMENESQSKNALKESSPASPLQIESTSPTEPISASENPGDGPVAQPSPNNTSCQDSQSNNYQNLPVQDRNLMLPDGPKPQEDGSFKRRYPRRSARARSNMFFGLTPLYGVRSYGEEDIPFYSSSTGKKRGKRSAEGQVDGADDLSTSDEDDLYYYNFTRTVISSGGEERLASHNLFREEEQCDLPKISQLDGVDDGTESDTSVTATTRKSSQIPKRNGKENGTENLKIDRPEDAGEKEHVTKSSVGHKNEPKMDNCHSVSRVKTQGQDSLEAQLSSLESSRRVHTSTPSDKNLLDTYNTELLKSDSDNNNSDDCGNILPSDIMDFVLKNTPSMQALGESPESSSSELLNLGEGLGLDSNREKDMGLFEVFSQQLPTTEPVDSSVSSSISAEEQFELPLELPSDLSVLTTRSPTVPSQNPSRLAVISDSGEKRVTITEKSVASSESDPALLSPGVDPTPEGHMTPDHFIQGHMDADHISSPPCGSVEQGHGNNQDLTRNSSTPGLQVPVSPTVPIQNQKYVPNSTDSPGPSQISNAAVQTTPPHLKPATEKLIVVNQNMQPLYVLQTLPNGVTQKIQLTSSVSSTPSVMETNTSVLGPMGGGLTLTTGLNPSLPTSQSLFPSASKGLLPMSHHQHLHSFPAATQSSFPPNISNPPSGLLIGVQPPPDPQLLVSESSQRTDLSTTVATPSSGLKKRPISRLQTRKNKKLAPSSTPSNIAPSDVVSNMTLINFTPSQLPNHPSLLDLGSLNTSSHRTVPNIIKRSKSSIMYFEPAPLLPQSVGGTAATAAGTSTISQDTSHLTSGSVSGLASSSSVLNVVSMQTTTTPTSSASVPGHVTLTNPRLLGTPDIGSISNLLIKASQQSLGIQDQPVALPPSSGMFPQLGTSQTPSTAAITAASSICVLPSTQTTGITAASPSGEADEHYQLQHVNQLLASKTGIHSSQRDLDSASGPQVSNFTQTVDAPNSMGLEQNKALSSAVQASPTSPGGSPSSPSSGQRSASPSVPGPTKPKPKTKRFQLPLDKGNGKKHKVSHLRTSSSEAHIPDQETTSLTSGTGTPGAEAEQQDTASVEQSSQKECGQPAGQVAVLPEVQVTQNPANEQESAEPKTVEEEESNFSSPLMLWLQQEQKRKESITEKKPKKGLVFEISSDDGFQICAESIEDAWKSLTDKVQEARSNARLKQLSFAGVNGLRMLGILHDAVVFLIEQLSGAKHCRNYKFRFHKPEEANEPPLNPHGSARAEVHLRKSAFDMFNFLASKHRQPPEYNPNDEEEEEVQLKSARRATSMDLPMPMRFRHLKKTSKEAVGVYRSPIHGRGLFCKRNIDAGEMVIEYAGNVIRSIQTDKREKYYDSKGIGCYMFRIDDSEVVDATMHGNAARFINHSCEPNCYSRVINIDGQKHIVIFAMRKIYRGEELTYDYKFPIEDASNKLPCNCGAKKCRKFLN
# About 110 (0.038%) of roughly 290,000 compounds were called active. The inconclusive results got no clear call from the source; some entries with a clear call stand among them for comparison. Calls follow the shape of the dose curve; as a rule, active = well fitted inhibition curve with a large enough effect in the polarisation, with a control signal flat (not every such curve was filed as active); inconclusive = small, poorly fitted or top-dose-only effect, or effect the other way, or a change in a side signal; inactive = no such curve, though single readings can be large or run the other way; the % refers to the polarisation. Potencies of inconclusive entries are doubtful fits and often do not repeat. A note “side channel” means that the fit belongs to a control or component signal, not to the main read-out.
# Molecular target: Histone-lysine N-methyltransferase 2A (Homo sapiens) (UniProt Q03164)
# Test: qHTS Fluorescence Polarization Assay for Inhibitors of MLL CXXC domain - DNA interaction
# Settings: MLL-CXXC / FITC-HOXA9 DNA fluorescence polarization; series mostly up to 115 µM
# From the text: NIH Chemical Genomics Center [NCGC] NIH Molecular Libraries Probe Production centers Network [MLPCN] MLPCN Grant: DA027717-01A1 Assay Submitter (PI): John Bushweller NCGC Assay Overview: The MLL (Mixed Lineage Luekemia) gene is involved in chromosomal translocation that results in either acute lymphoid leukemia (ALL) or acute myeloid leukemia (AML). Chromasomal translocation of MLL gene is responsible for the fusion of N-terminal MLL to more than 60 different partner genes in frame. Many of the MLL partner genes contain transcription activation domains or function as transcriptional activators. Despite the heterogeneity of fusion partners, the N-terminus of MLL fusion proteins always consists of the N-terminal menin binding motif and the CXXC domain. The MLL-CXXC domain specifically recognizes unmethylated CpG sequences of the HOX-A gene. Disruption of the MLL-CXXC and HOX-A gene interaction leads to down regulation of HOX-A gene expression and may potentially reverse leukemogenesis. We have miniaturized and optimized an in-vitro assay to screen for inhibitors of the MLL-CXXC domain and HOX-A DNA interaction, which could have utility in MLL fusion leukemias.
# The affinity purified MLL-CXXC domain, unlabeled HOX-A9 DNA strand, fluorescein (FLSN) labeled HOX-A9 DNA strand were kindly supplied by the laboratory of Dr. John Bushweller, University of Virginia. All reagents were stored in single use aliquots at -80C. Assay Reagents: Assay buffer: 50 mM TRIS-HCl pH 7.5, 50 mM NaCl, 1 mM DTT. Add 0.05% BSA prior to reaction setup. Assay Procedure: 1.Dispense 1 ul of a 7 uM MLL-CXXC solution prepared in assay buffer into column 1-48. 2.Transfer 23 nl of compounds and unlabeled HOX-A9 per well. 3.Incubate for 5 minutes at ambient. 4.Dispense 1ul of a 50 nM FLSN-HOX-A9 solution prepared in assay buffer into columns 1-48 5.Centrifuge for 30 seconds at 1000 RPM. 6.Incubate for 30 minutes at ambient. 7.Read using the Envision reader fluorescent polarization protocol.
# Potency is read from the fitted curve at half-maximal effect.
row,SMILES,Potency
1,CC(=O)c1ccc(NC(=O)CSc2nccn2C)cc1,inactive
2,COC(=O)c1cc(S(=O)(=O)N2CCN(c3ccccc3F)CC2)c[nH]1,inactive
3,O=C(NCc1ccccn1)c1cc(Cl)ccc1OCc1ccccc1,"inconclusive: 10 µM [quencher, side channel, single point]"
4,COc1ccc2cc(CN(CC3CCCO3)S(=O)(=O)c3ccc(C(C)=O)cc3)c(=O)[nH]c2c1 (stereo unspecified),inactive
5,COc1ccccc1/C=C1/C(=O)ON=C1C,"inconclusive: 50.1 µM [inhibitor, partial curve]"
6,O=C(Nc1nnc(-c2ccncc2)o1)c1ccc(Br)s1,"inconclusive: 8.91 µM [fluorescent, side channel, partial curve]"
7,COc1ccc(C)cc1NC(=O)CCN1CC(C)OC(C)C1 (stereo unspecified),"inconclusive: 28.2 µM [quencher, side channel, partial curve]"
8,CCOc1cc(/C=C2\N=C(SCC)SC2=O)cc([N+](=O)[O-])c1OC(C)=O,"inconclusive: 89.1 µM [inhibitor, single point]"
9,COc1cc(/C=N/NC(=S)NCCN2CCOCC2)cc(OC)c1O,inactive
10,Cc1cc(Br)c(S(=O)(=O)n2nnc3ccccc32)cc1C,"inconclusive: 1.41 µM [fluorescent, side channel, partial curve, poor fit]"
11,O=C(OCCN1C(=O)c2cccc3c(N4CCOCC4)ccc(c23)C1=O)c1cccc(Cl)c1,"inconclusive: 39.8 µM [fluorescent, side channel, partial curve]"
12,COC(=O)[C@H](Cc1ccccc1)NC(=O)NCCc1ccccc1F,"inconclusive: 7.08 µM [fluorescent, side channel, partial curve]"
13,CN1CC(=O)N=C1N,"inconclusive: 35.5 µM [fluorescent, side channel, full curve]"
14,COc1cc(O)cc2cc3c(c(O)c12)C(=O)CC(C)(O)O3 (stereo unspecified),"inconclusive: 35.5 µM [fluorescent, side channel, single point]"
15,CCCNC(=O)/C(C#N)=C1\N=C(NC(=O)c2ccco2)c2ccccc21,"inconclusive: 44.7 µM [fluorescent, side channel, single point]"
16,O=C(O)c1c(Cl)c(Cl)c(Cl)c(Cl)c1-c1c2cc(I)c(=O)c(I)c-2oc2c(I)c(O)c(I)cc12,"inconclusive: 35.5 µM [fluorescent, full curve]"
17,O=C(CCC(=O)Nc1ccccc1)N/N=C/c1cccnc1,"inconclusive: 10 µM [quencher, side channel, single point]"
18,COc1ccc(OC(=O)CN2C(=O)C3C4CCC(C4)C3C2=O)cc1 (stereo unspecified),"inconclusive: 11.2 µM [fluorescent, side channel, single point]"
19,CO/N=C(\Cn1ncc(N2CCCC2)c(Cl)c1=O)c1ccc(Cl)cc1,inactive
20,O=C(O)CCc1ccc(-c2ccccc2)n1-c1ccc(C(=O)O)cc1,"inconclusive: 39.8 µM [fluorescent, side channel, single point]"
21,CC(C)CSC1=NSC2=NC(=O)/C(=C\c3coc4ccccc4c3=O)C(=N)N12,"inconclusive: 3.55 µM [fluorescent, side channel, full curve]"

row,SMILES,Potency
1,COc1ccsc1C(=O)NCCN1CCOCC1,"inconclusive: 31.6 µM [fluorescent, side channel, partial curve]"
2,Cc1cccc(NC(=S)N2CCN(S(=O)(=O)c3ccc(F)cc3)CC2)c1,"inconclusive: 15.8 µM [quencher, side channel, single point]"
3,O=C(CN1CCOCC1)N/N=C/c1cccc2ccccc12,inactive
4,O=C(O)c1ccc(Cn2cnc3cccnc32)cc1,"inconclusive: 8.91 µM [fluorescent, side channel, partial curve]"
5,COc1cccc(C2NC(=S)NC3=C2CCc2ccccc23)c1 (stereo unspecified),"inconclusive: 7.08 µM [fluorescent, side channel, full curve, poor fit]"
6,O=C(O)c1cc2c(cn1)[nH]c1ccccc12,"inconclusive: 70.8 µM [fluorescent, side channel, single point]"
7,CC[N+](CC)(CC)CCCCOc1ccc2c(c1)C(=O)c1cc(OCCCC[N+](CC)(CC)CC)ccc1-2,"inconclusive: 31.6 µM [quencher, side channel, partial curve]"
8,C=CCN1C=CC(=C/C=C(/C#N)C(=O)OCC)C=C1,"inconclusive: 22.4 µM [fluorescent, side channel, partial curve]"
9,Cc1cc(Nc2ccc(C(=O)N3CCCCC3)cc2)c2cccc(C)c2n1,"inconclusive: 14.1 µM [fluorescent, side channel, single point]"
10,CCCCN(C)Cc1c(C(=O)N2CCc3ccccc3C2)nc2ccc(Cl)cn12,"inconclusive: 1.41 µM [inhibitor, full curve, poor fit]"
11,CNC(=O)C(C)c1ncc(C(F)(F)F)cc1Cl (stereo unspecified),"inconclusive: 14.1 µM [inhibitor, single point]"
12,CCOC(=O)CC1C(C(=O)OCC)ON2OC(C(=O)OC)C(C(=O)OCC)C12 (stereo unspecified),"inconclusive: 12.6 µM [inhibitor, partial curve]"
13,COc1cc2[nH]c(C(=O)NCC3CCCO3)cc2c(OC)c1OC (stereo unspecified),"inconclusive: 50.1 µM [fluorescent, side channel, partial curve]"
14,Cc1nn(C(C)(C)C)c(OC(=O)c2ccc3c(c2)OCO3)c1Sc1ccccc1,inactive
15,CCOc1ccc(NC(=O)NCCCCc2ccccc2)cc1,"inconclusive: 11.2 µM [fluorescent, side channel, single point]"
16,COc1cc(/C=C2\C(=O)ON=C2c2ccccc2)cc(Cl)c1O,"inconclusive: 8.91 µM [fluorescent, side channel, partial curve]"
17,O=C(NCc1ccccc1F)c1ccc(S(=O)(=O)Nc2cccc(C(F)(F)F)c2)cc1,"inconclusive: 15.8 µM [fluorescent, side channel, partial curve]"
18,O=[N+]([O-])c1ccc(S(=O)(=O)CC(CN2CCCCC2)N2CCCCC2)cc1 (stereo unspecified),"inconclusive: 14.1 µM [fluorescent, side channel, single point]"
19,C=CCN(CC=C)CCOc1cc(C)ccc1[N+](=O)[O-],"inconclusive: 14.1 µM [fluorescent, side channel, single point]"
20,O=C(Nc1ccccc1Cl)c1cc(S(=O)(=O)N2CCCCC2)ccc1N1CCOCC1,"inconclusive: 70.8 µM [fluorescent, side channel, single point]"
21,CCOC(=O)Cc1csc(NS(=O)(=O)c2ccc(Cl)cc2)n1,"inconclusive: 3.16 µM [fluorescent, side channel, full curve, poor fit]"

# In the list so far, these have an aryl thioether with sulfur outside any ring.
row,SMILES,Potency
1,CC(=O)c1ccc(NC(=O)CSc2nccn2C)cc1,inactive
14,Cc1nn(C(C)(C)C)c(OC(=O)c2ccc3c(c2)OCO3)c1Sc1ccccc1,inactive

# Further structures follow.

row,SMILES,Potency
1,CN1C(=O)c2ccccc2NC(=O)[C@]12O[C@@H]2c1cccc(O)c1,"inconclusive: 70.8 µM [fluorescent, side channel, single point]"
2,Oc1c(Cl)cc(Cl)cc1/C=N/NC(=S)NC1CC2C=CC1C2 (stereo unspecified),inactive
3,CCCCC(=O)O[C@]1(C(=O)CO)CC[C@H]2[C@@H]3CCC4=CC(=O)CC[C@]4(C)[C@H]3[C@@H](O)C[C@@]21C,"inconclusive: 14.1 µM [inhibitor, single point]"
4,CC1CCN(c2nc3ccccc3nc2C(C#N)C(=O)OC2CCCCC2)CC1 (stereo unspecified),"inconclusive: 35.5 µM [fluorescent, single point]"
5,O=C1C(Cl)=C(NC(=O)c2ccccc2)C(=O)C(Cl)=C1NC(=O)c1ccccc1,"inconclusive: 56.2 µM [fluorescent, side channel, single point]"
6,COc1ccc(CN2CCOCCOCCOCC2)cc1,inactive
7,Cc1ccc(C(=O)Nc2ccc(SC(F)F)cc2)s1,"inconclusive: 31.6 µM [fluorescent, side channel, partial curve, poor fit]"
8,CC1CCC/C(=N/Nc2ccc([N+](=O)[O-])cc2[N+](=O)[O-])C1 (stereo unspecified),inactive
9,N=c1oc2ccc3ccccc3c2cc1-c1nc(-c2ccccc2)cs1,"inconclusive: 20 µM [fluorescent, side channel, partial curve]"
10,Cc1cccc(-c2nc3ccccc3c(=O)n2NC(=O)/C=C/c2ccc([N+](=O)[O-])cc2)c1,inactive
11,CCCN=Cc1ccc(O)cc1,"inconclusive: 11.2 µM [fluorescent, side channel, full curve]"
12,COCCN(C(=O)COC(=O)Cc1cccc2ccccc12)c1c(N)n(Cc2ccccc2)c(=O)[nH]c1=O,"inconclusive: 10 µM [activator, full curve, poor fit]"
13,Cc1ccc(/C=N/Nc2cc(C)nc(NCc3ccccc3)n2)cc1,inactive
14,O=C(CNC(=O)c1ccc(N2C(=O)c3ccccc3C2=O)cc1)OCC(=O)c1ccc(Cl)cc1,"inconclusive: 5.62 µM [fluorescent, side channel, full curve, poor fit]"
15,O=C(CCCCn1c(=O)c2ccccc2n(Cc2ccc(F)cc2Cl)c1=O)NCc1ccco1,"inconclusive: 15.8 µM [fluorescent, side channel, single point]"
16,CN(C(=O)c1ccccc1)c1nccnc1C#N,inactive
17,CC(C)c1nc(Cl)c(C#N)c2c1COC(C)(C)C2,inactive
18,Cc1ccc(-n2c(N)c(C(=O)NCc3ccco3)sc2=S)cc1,inactive
19,CCOc1ccc(N=C2NC(=O)S/C2=C\c2ccc(N(C)C)cc2)cc1,inactive

# 3 entries from above, with bars between the fields:
row | SMILES | Potency
6 | COc1ccc(CN2CCOCCOCCOCC2)cc1 | inactive
14 | O=C(CNC(=O)c1ccc(N2C(=O)c3ccccc3C2=O)cc1)OCC(=O)c1ccc(Cl)cc1 | inconclusive: 5.62 µM [fluorescent, side channel, full curve, poor fit]
16 | CN(C(=O)c1ccccc1)c1nccnc1C#N | inactive
